Among all 390,000 compounds or so, about 4,000 (1%) were called active. Inconclusive means that the source gave no clear call. Such entries were picked first, then a sample of the others. Calls come from the whole dose curve; as a rule, active = well fitted inhibition curve with a large enough effect; inconclusive = small, poorly fitted or top-dose-only effect, or another doubt; inactive = no such curve, though single readings can be large or run the other way. Where the call is inconclusive, the potency comes from a doubtful curve fit.
target: DNA polymerase iota (Homo sapiens) (UniProt Q9UNA4); assay: qHTS for Inhibitors of Polymerase Iota; details: Pol iota fluorescent replication assay, 10 min; series mostly up to 115 µM
In short: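 Fluorescent replication assay read twice, at 0 min and 10 min after adding 50 nM (final) substrate. Enzyme (10 nM) and compounds were first incubated 15 min at room temperature; enzyme-free buffer wells were negative controls.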
Potency is the fitted concentration of half-maximal effect.

Amino acid sequences for entries named in this document (tags omitted). A change or cut given only in a name is not applied to a line headed by its entry.
UniProt Q9UNA4: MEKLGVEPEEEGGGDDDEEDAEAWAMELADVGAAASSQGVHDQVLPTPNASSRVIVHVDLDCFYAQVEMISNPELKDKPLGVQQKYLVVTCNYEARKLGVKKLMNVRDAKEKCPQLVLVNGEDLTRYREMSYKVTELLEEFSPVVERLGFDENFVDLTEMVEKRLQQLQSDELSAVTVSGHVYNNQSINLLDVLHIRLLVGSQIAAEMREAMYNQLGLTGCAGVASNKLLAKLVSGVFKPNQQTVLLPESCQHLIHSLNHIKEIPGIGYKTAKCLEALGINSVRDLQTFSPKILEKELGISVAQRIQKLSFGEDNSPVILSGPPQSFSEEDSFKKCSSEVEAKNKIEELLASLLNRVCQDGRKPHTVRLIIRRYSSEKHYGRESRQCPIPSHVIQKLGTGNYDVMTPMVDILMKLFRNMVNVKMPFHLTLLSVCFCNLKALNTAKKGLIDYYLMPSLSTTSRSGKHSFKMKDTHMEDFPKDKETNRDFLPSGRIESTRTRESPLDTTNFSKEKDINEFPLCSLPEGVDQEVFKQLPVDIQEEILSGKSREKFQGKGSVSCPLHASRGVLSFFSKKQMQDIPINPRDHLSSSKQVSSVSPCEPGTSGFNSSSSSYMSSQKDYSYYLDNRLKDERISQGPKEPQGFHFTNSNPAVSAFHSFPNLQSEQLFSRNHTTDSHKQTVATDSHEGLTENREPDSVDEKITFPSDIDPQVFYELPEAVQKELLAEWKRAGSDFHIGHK

SMILES	Potency
c1ccc(CSc2ccc(-c3cccnc3)nn2)cc1	inconclusive: 70.8 µM [inhibitor, partial curve]
Cc1oc(-c2cccc(Br)c2)nc1CSc1nc2ncccc2[nH]1	inactive
Cc1ccccc1CS(=O)(=O)c1ncc(Cl)c(C(=O)Nc2nnc(C(C)C)s2)n1	inconclusive: 14.1 µM [inhibitor, full curve, poor fit]
Oc1ccc(CNc2ccccc2O)cc1	inconclusive: 39.8 µM [inhibitor, partial curve, poor fit]
CCOc1ccc(CN(CC)C(=O)Cc2c[nH]c3ccccc23)cc1OC	inactive
CCc1ccc(CNC(=O)C2CCN(C(=O)c3ccc(-n4ccc5ccccc54)s3)CC2)cc1	inconclusive: 89.1 µM [inhibitor, single point]
CCCOc1ccc(C(=O)Nc2sc3c(c2C(=O)OCC)CCCCC3)cc1	inconclusive: 89.1 µM [inhibitor, single point]
O=C(O)CCCCC1CCSS1 (centres undefined)	inactive
Cc1ccc(S(=O)(=O)N2C[C@@H]3[C@H]4CC[C@H](C4)[C@@H]3[C@@H](C)[C@@H]2c2cn(Cc3ccccc3)c3ncccc23)cc1	inconclusive: 31.6 µM [inhibitor, full curve, poor fit]
CC(=O)N(c1ccc2oc(=O)sc2c1)S(=O)(=O)c1ccc(C)cc1	inconclusive: 22.4 µM [inhibitor, partial curve, poor fit]
COc1ccccc1COc1ccc2c(C)c(CCC(=O)O)c(=O)oc2c1C	inactive
Nc1[nH]n(-c2ccccc2)c(=O)c1N=Nc1ccccc1[N+](=O)[O-]	inconclusive: 35.5 µM [inhibitor, partial curve, poor fit]
Cc1ccccc1-c1noc(-c2ccc(N3CCCC3)c([N+](=O)[O-])c2)n1	inactive
COc1ccccc1OCCCn1c(C)c(C#N)c2ccccc21	inconclusive: 39.8 µM [inhibitor, partial curve, poor fit]
O=S(=O)(c1ccc(F)cc1)N1CCC(N2CCCC2)CC1	inconclusive: 28.2 µM [inhibitor, single point]
COc1cccc(-c2nc(N3CCN(C)CC3)c3ccccc3n2)c1O	inconclusive: 50.1 µM [inhibitor, partial curve, poor fit]
O=C(NC(=O)c1ccc(F)cc1)Nc1nc(-c2cccs2)cc(C(F)(F)F)n1	inconclusive: 39.8 µM [inhibitor, single point]
COc1cccc(-n2c(SCC(=O)NCCC3=CCCCC3)nc3n[nH]c(C)c3c2=N)c1	inactive
Cc1ccc(NC(=O)C2CSC3(C)CCC(=O)N23)cc1S(=O)(=O)N1CCOCC1 (centres undefined)	inconclusive: 79.4 µM [inhibitor, partial curve]
Cc1cc(O)c2c(c1)C(=O)[C@@]13Oc4c5c(c(O)c6c(O)cc(C)cc46)C(=O)C[C@H](O)[C@H]5[C@@H]1[C@@H](O)CC(=O)C3=C2O	inconclusive: 0.631 µM [inhibitor, full curve, poor fit]
COC(=O)C(NC(C)=O)(Nc1ccccc1)C(=O)OC	inactive
O=C1S/C(=C\c2ccc(N3CCOCC3)o2)C(=O)N1Cc1c(F)cccc1Cl	inconclusive: 14.1 µM [inhibitor, partial curve, poor fit]

SMILES	Potency
CCOC(=O)c1c(NC(=S)Nc2ccc(Cl)cc2)sc2c1CCN(C)C2	inconclusive: 8.91 µM [inhibitor, partial curve, poor fit]
CCCCC/C=C\C[C@H](O)/C=C/c1cccc(C[C@H](O)CCCCO)n1	inconclusive: 100 µM [inhibitor, partial curve, poor fit]
COc1ccc(Oc2ccc(/C=C/C(=O)c3ccc(O)cc3)cc2[N+](=O)[O-])cc1	inconclusive: 25.1 µM [inhibitor, partial curve, poor fit]
C=CCN1c2ccc(Br)cc2C(=O)CS1(=O)=O	inconclusive: 7.08 µM [inhibitor, partial curve, poor fit]
CC1CCN(CC(=O)Nc2ccc(Br)cc2[N+](=O)[O-])CC1	inconclusive: 39.8 µM [inhibitor, partial curve, poor fit]
COc1ccc2c(c1)Cc1sc(NC(=O)c3ccc(Cl)cc3)nc1-2	active: 22.4 µM
Nn1c(SCC(=O)NC2CCCCC2)nnc1C1CC1	inactive
CCOC(=O)C1(CC2CC2)CCN(Cc2ccc(OC)cc2F)CC1	inactive
N#C/C(=C\c1ccc(-c2ccc(Cl)c(C(=O)O)c2)o1)c1nc2ccccc2[nH]1	active: 22.4 µM
Cc1[nH]n(-c2ccccc2)c(=O)c1/C=N/N(C)c1ccccc1	inconclusive: 39.8 µM [inhibitor, single point]
Cc1ccc(C(=O)OCn2ncc(Cl)c(Cl)c2=O)cc1	inconclusive: 15.8 µM [inhibitor, full curve, poor fit]
COc1cccc(NC(=O)C2Cc3ccccc3CN2C(=O)c2ccco2)c1 (centres undefined)	inconclusive: 25.1 µM [inhibitor, single point]
O=C(CSc1nnc(C2CC2)n1Cc1ccccc1)c1cc2ccccc2o1	inconclusive: 20 µM [inhibitor, partial curve, poor fit]
Oc1ccc(NCc2ccccc2OCc2ccccc2Cl)cc1	inconclusive: 14.1 µM [inhibitor, partial curve, poor fit]
CN(C)c1ccc(NC(=O)CSC2=Nc3ccccc3C3=NC(CC(=O)NCc4ccc5c(c4)OCO5)C(=O)N23)cc1 (centres undefined)	inconclusive: 79.4 µM [inhibitor, partial curve]
CCC1(C(=O)c2ccc(Cl)cc2)C2c3ccccc3OC(=O)C21C(=O)Nc1ccccc1 (centres undefined)	inconclusive: 89.1 µM [inhibitor, single point]
Cc1ccccc1-c1noc(-c2cc(C(C)C)[nH]n2)n1	inactive
CC(C)N1CCC2(CC1)N=C(c1ccc3c(c1)OCO3)CC(c1cc(Cl)ccc1O)N2 (centres undefined)	inconclusive: 12.6 µM [inhibitor, partial curve, poor fit]
COc1ccccc1Cc1nc2ccccc2nc1SCC(=O)N1CCCc2ccccc21	inconclusive: 50.1 µM [inhibitor, partial curve]
Cc1ccc2c(c1)C(=O)C(=O)N2CC(=O)Nc1ccc(N2CCOCC2)cc1	inconclusive: 79.4 µM [inhibitor, single point]
Oc1cc2c(c(Cl)c1O)CCNCC2c1ccccc1 (centres undefined)	active: 31.6 µM
Cc1cc(Nc2ccc(Cl)cc2)n2cnnc2n1	inactive

Of the compounds above, these have a cyano group:
SMILES	Potency
COc1ccccc1OCCCn1c(C)c(C#N)c2ccccc21	inconclusive: 39.8 µM [inhibitor, partial curve, poor fit]
N#C/C(=C\c1ccc(-c2ccc(Cl)c(C(=O)O)c2)o1)c1nc2ccccc2[nH]1	active: 22.4 µM

(list continues)

SMILES	Potency
COC(=O)c1cccc(NC(=O)c2ccc3c(c2)C(=O)N(C(C)(C)C)C3=O)c1	inconclusive: 35.5 µM [inhibitor, partial curve, poor fit]
CCCN1CNc2c(c(=O)[nH]c(=S)n2Cc2ccc(OC)c(OC)c2)C1	inconclusive: 89.1 µM [inhibitor, single point]
O=C(COC(=O)CNC(=O)C1CCCCC1)Nc1cc(C(F)(F)F)ccc1Cl	inconclusive: 31.6 µM [inhibitor, partial curve, poor fit]
CN1C(C(=O)NCc2ccccc2)CC2Cn3c(nc4cc5ccccc5cc43)C21 (centres undefined)	inactive
CN(C)S(=O)(=O)c1ccc(NC(=O)Cc2ccc(S(=O)(=O)N3CCOCC3)s2)cc1	inconclusive: 11.2 µM [inhibitor, partial curve, poor fit]
Cc1cc(Nc2cccc(F)c2)nc(-c2ccccc2O)n1	inconclusive: 50.1 µM [inhibitor, partial curve]
Cc1ccc(C)c(OCC(=O)Nc2nonc2NC(=O)COc2cc(C)ccc2C)c1	inconclusive: 5.01 µM [inhibitor, full curve, poor fit]
CCN(CC)S(=O)(=O)c1cc(C(=O)OCC(=O)NC2CCCc3ccccc32)ccc1C (centres undefined)	inconclusive: 39.8 µM [inhibitor, partial curve, poor fit]
CCCCCN1CC(O)=C(c2nc3ccccc3[nH]2)C1=N	inactive
Cc1cccc(OCCCSc2nc(-c3ccc(C(C)(C)C)cc3)nc3cc(=O)[nH]n23)c1C	inconclusive: 79.4 µM [inhibitor, single point]
O=C(O)/C=C/C(=O)Nc1ccc(Cl)c(C(=O)O)c1	inconclusive: 31.6 µM [inhibitor, single point]
O=C(Nc1cccnc1Cl)c1cc(-c2ccc(O)cc2)on1	inconclusive: 56.2 µM [inhibitor, partial curve, poor fit]
CCOc1ccccc1NC(=O)C(=O)CC(=O)c1ccc(OC)cc1	inconclusive: 39.8 µM [inhibitor, single point]
Cc1ccc2nc(-c3ccc(NC(=O)CSc4ccccc4)cc3)[nH]c2c1	active: 35.5 µM
CCOc1ccc(NC(=O)Cn2sc3nc(C)cc(C)c3c2=O)cc1	inconclusive: 17.8 µM [inhibitor, full curve]
O=C(Nc1ccc(Cl)c(Cl)c1)c1cc(S(=O)(=O)N2CCN(c3cccc(Cl)c3)CC2)ccc1F	inactive
COc1ccc(-c2cc(=O)c3c(O)c(OC)c(O)cc3o2)cc1	inactive
O=C(Cc1ccc(S(=O)(=O)N2CCOCC2)s1)N1CCN(c2cccc(C(F)(F)F)c2)CC1	inactive
COc1cc2c3nnc(-c4ccc(F)cc4)c-3cn(Cc3cccc(F)c3)c2cc1OC	inconclusive: 39.8 µM [inhibitor, partial curve, poor fit]
CC(=O)Nc1ccc2nc(NC(=O)COc3ccc(C)cc3)sc2c1	inconclusive: 28.2 µM [inhibitor, partial curve, poor fit]

— PubChem BioAssay AID588590 (National Center for Advancing Translational Sciences (NCATS), 2011)
